# Data: the supplement of paper PMC8728848
# The list shows a part of the results.
# Assays:
# Assay in all cases: glycan array binding signal (z-score within array); higher = stronger binding
# Settings in all cases: glycan notation: IUPAC condensed, linker removed
# [1] = biological target: Gal(b1-4)GlcNAc(b1-3)Gal(b1-4)GlcNAc(b1-3)Gal(b1-4)GlcNAc
# How it was run: (§1)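 From the Consortium for Functional Glycomics database, 3228 arrays were curated, keeping only those whose protein sequence was available. Binding is given as a within-array Z-score averaged across arrays sharing a protein sequence and across linkers. Negative Z-scores can be read as non-binding.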
# [2] = biological target: Gal(b1-4)GlcNAc(b1-3)Gal(b1-4)[Fuc(a1-3)]GlcNAc(b1-3)Gal(b1-4)[Fuc(a1-3)]GlcNAc
# How it was run: as §1
# [3] = biological target: Gal(b1-4)GlcNAc(b1-3)GalNAc
# How it was run: as §1
# [4] = biological target: Gal(b1-4)GlcNAc(b1-3)[Gal(b1-4)GlcNAc(b1-6)]Gal(b1-4)GlcNAc
# How it was run: as §1
# [5] = biological target: Gal(b1-4)GlcNAc(b1-3)[GlcNAc(b1-6)]Gal(b1-4)GlcNAc
# How it was run: as §1
# [6] = biological target: Gal(b1-4)GlcNAc(b1-6)Gal(b1-4)GlcNAc
# How it was run: as §1
# [7] = biological target: Gal(b1-4)GlcNAc(b1-6)Gal(b1-4)GlcNAc(b1-6)GalNAc
# How it was run: as §1
# [8] = biological target: Gal(b1-4)GlcNAc(b1-6)GalNAc
# How it was run: as §1
# [9] = biological target: Gal(b1-4)GlcNAc(b1-6)[Gal(b1-3)]GalNAc
# How it was run: as §1
# Gal3S(b1-3)GalNAc = biological target: Gal3S(b1-3)GalNAc
# How it was run: as §1
# Gal3S(b1-3)GlcNAc = biological target: Gal3S(b1-3)GlcNAc
# How it was run: as §1
# [10] = biological target: Gal3S(b1-3)[Fuc(a1-4)]GlcNAc
# How it was run: as §1
# Gal3S(b1-4)Glc = biological target: Gal3S(b1-4)Glc
# How it was run: as §1
# Gal3S(b1-4)Glc6S = biological target: Gal3S(b1-4)Glc6S
# How it was run: as §1
# Gal3S(b1-4)GlcNAc = biological target: Gal3S(b1-4)GlcNAc
# How it was run: as §1
# Gal3S(b1-4)GlcNAc6S = biological target: Gal3S(b1-4)GlcNAc6S
# How it was run: as §1
# [11] = biological target: Gal3S(b1-4)[Fuc(a1-3)]Glc
# How it was run: as §1
# Gal3S4S(b1-4)GlcNAc = biological target: Gal3S4S(b1-4)GlcNAc
# How it was run: as §1
# Gal3S6S(b1-4)GlcNAc = biological target: Gal3S6S(b1-4)GlcNAc
# How it was run: as §1
# Gal3S6S(b1-4)GlcNAc6S = biological target: Gal3S6S(b1-4)GlcNAc6S
# How it was run: as §1
# Gal4S(b1-4)GlcNAc = biological target: Gal4S(b1-4)GlcNAc
# How it was run: as §1
# Gal4S6S(b1-4)GlcNAc = biological target: Gal4S6S(b1-4)GlcNAc
# How it was run: as §1
# Gal6S(b1-4)Glc = biological target: Gal6S(b1-4)Glc
# How it was run: as §1
# Gal6S(b1-4)Glc6S = biological target: Gal6S(b1-4)Glc6S
# How it was run: as §1
# Gal6S(b1-4)GlcNAc = biological target: Gal6S(b1-4)GlcNAc
# How it was run: as §1
# Gal6S(b1-4)GlcNAc6S = biological target: Gal6S(b1-4)GlcNAc6S
# How it was run: as §1
# GalNAc(a1-3)Gal = biological target: GalNAc(a1-3)Gal
# How it was run: as §1
# GalNAc(a1-3)GalNAc = biological target: GalNAc(a1-3)GalNAc
# How it was run: as §1
# GalNAc(b1-3)Gal = biological target: GalNAc(b1-3)Gal
# How it was run: as §1
# [12] = biological target: GalNAc(b1-3)Gal(a1-4)Gal(b1-4)GlcNAc
# How it was run: as §1
# GalNAc(b1-3)GalNAc = biological target: GalNAc(b1-3)GalNAc
# How it was run: as §1
# GalNAc(b1-4)GlcNAc = biological target: GalNAc(b1-4)GlcNAc
# How it was run: as §1
# Glc(a1-4)Glc = biological target: Glc(a1-4)Glc
# How it was run: as §1
# Glc(a1-6)Glc(a1-6)Glc = biological target: Glc(a1-6)Glc(a1-6)Glc
# How it was run: as §1
# Glc(b1-4)Glc = biological target: Glc(b1-4)Glc
# How it was run: as §1
# Glc(b1-6)Glc = biological target: Glc(b1-6)Glc
# How it was run: as §1
# GlcA(b1-3)Gal = biological target: GlcA(b1-3)Gal
# How it was run: as §1
binder,measurement,setting,value
"MCL (Mus musculus), Q9Z2H6 (protein) MWLEESQMKSKGTRHPQLIPCVFAVVSISFLSACFISTCLVTHHYFLRWTRGSVVKLSDYHTRVTCIREEPQPGATGGTWTCCPVSWRAFQSNCYFPLNDNQTWHESERNCSGMSSHLVTINTEAEQNFVTQLLDKRFSYFLGLADENVEGQWQWVDKTPFNPHTVFWEKGESNDFMEEDCVVLVHVHEKWVWNDFPCHFEVRRICKLPGITFNWKPSK",glycan array binding signal (z-score),[1],-0.456
same,glycan array binding signal (z-score),[2],0.252
same,glycan array binding signal (z-score),[3],-0.158
same,glycan array binding signal (z-score),[4],-0.072
same,glycan array binding signal (z-score),[5],-0.515
same,glycan array binding signal (z-score),[6],-0.437
same,glycan array binding signal (z-score),[7],0.16
same,glycan array binding signal (z-score),[8],-0.268
same,glycan array binding signal (z-score),[9],0.376
same,glycan array binding signal (z-score),Gal3S(b1-3)GalNAc,-1.04
same,glycan array binding signal (z-score),Gal3S(b1-3)GlcNAc,0.427
same,glycan array binding signal (z-score),[10],0.263
same,glycan array binding signal (z-score),Gal3S(b1-4)Glc,-0.59
same,glycan array binding signal (z-score),Gal3S(b1-4)Glc6S,0.183
same,glycan array binding signal (z-score),Gal3S(b1-4)GlcNAc,-0.202
same,glycan array binding signal (z-score),Gal3S(b1-4)GlcNAc6S,-0.308
same,glycan array binding signal (z-score),[11],-0.115
same,glycan array binding signal (z-score),Gal3S4S(b1-4)GlcNAc,-0.534
same,glycan array binding signal (z-score),Gal3S6S(b1-4)GlcNAc,-0.639
same,glycan array binding signal (z-score),Gal3S6S(b1-4)GlcNAc6S,-0.825
same,glycan array binding signal (z-score),Gal4S(b1-4)GlcNAc,-0.7
same,glycan array binding signal (z-score),Gal4S6S(b1-4)GlcNAc,-0.665
same,glycan array binding signal (z-score),Gal6S(b1-4)Glc,0.143
same,glycan array binding signal (z-score),Gal6S(b1-4)Glc6S,0.414
same,glycan array binding signal (z-score),Gal6S(b1-4)GlcNAc,-0.272
same,glycan array binding signal (z-score),Gal6S(b1-4)GlcNAc6S,-0.264
same,glycan array binding signal (z-score),GalNAc(a1-3)Gal,-0.815
same,glycan array binding signal (z-score),GalNAc(a1-3)GalNAc,-0.708
same,glycan array binding signal (z-score),GalNAc(b1-3)Gal,-0.537
same,glycan array binding signal (z-score),[12],-0.187
same,glycan array binding signal (z-score),GalNAc(b1-3)GalNAc,-0.261
same,glycan array binding signal (z-score),GalNAc(b1-4)GlcNAc,-0.05
same,glycan array binding signal (z-score),Glc(a1-4)Glc,-0.072
same,glycan array binding signal (z-score),Glc(a1-6)Glc(a1-6)Glc,-0.407
same,glycan array binding signal (z-score),Glc(b1-4)Glc,-0.671
same,glycan array binding signal (z-score),Glc(b1-6)Glc,0.507
same,glycan array binding signal (z-score),GlcA(b1-3)Gal,-0.093

# Fetched one by one from the entries so far:
binder,measurement,setting,value
"MCL (Mus musculus), Q9Z2H6 (protein) MWLEESQMKSKGTRHPQLIPCVFAVVSISFLSACFISTCLVTHHYFLRWTRGSVVKLSDYHTRVTCIREEPQPGATGGTWTCCPVSWRAFQSNCYFPLNDNQTWHESERNCSGMSSHLVTINTEAEQNFVTQLLDKRFSYFLGLADENVEGQWQWVDKTPFNPHTVFWEKGESNDFMEEDCVVLVHVHEKWVWNDFPCHFEVRRICKLPGITFNWKPSK",glycan array binding signal (z-score),[11],-0.115
same,glycan array binding signal (z-score),[2],0.252
same,glycan array binding signal (z-score),[4],-0.072
